The list shows only some results of the screen, not a fair sample: it gathers tests that were run many times, whatever their T/C, doses with no T/C, and many T/C values between a quarter and a half above the control. Other doses and runs of a compound stand elsewhere. T/C gives the treated animals as a percentage of the vehicle group. Some entries give survivors of the animals treated and no T/C: the source holds a T/C of zero for them, seemingly a mark for toxic or unscored doses. Some survivor counts are full or nearly so, which does not show that the dose was tolerated: the source hardly ever lists a survival T/C far under the control, and the zero likely stands for such cases as well. Counts of survivors are from the toxicity check (mostly the fifth day) where no day follows; animals may have died later. Schedule codes are those of the source, read here as Q, the interval in days (D) or hours (H), X, the number of doses. Some entries were tested several times; their values stand side by side, smallest first. For survival time, the PubChem record calls one and a half times the control and up active, and a quarter to a half above the control has no call in these data; cut-offs in other NCI protocols can differ. Some T/C values carry the count of animals alive at the toxicity check (mostly the fifth day); where none is given, no animal had died by that day.

The test system of this test is P388 leukemia ip, CD2F1 mice, survival T/C. Nature of the test: NCI In Vivo Anticancer Drug Screen. Data for tumor model P388 Leukemia (intraperitoneal) in CD2F1 (CDF1) mice. To be noted: T/C endpoint: median survival time, higher T/C = longer survival.
The mark [1] stands for this setting: dose: 400.0 mg/kg/injection, schedule: Q01DX001 (ip), vehicle: saline with Tween-80.
Where [2] appears, read: dose: 50.0 mg/kg/injection, schedule: Q01DX009 (ip), vehicle: saline.
Setting [3] is: dose: 100.0 mg/kg/injection, schedule: Q01DX009 (ip), vehicle: saline.
[4] abbreviates: dose: 200.0 mg/kg/injection, schedule: Q01DX009 (ip), vehicle: saline.
The mark [5] stands for this setting: dose: 50.0 mg/kg/injection, schedule: Q01DX009 (ip), vehicle: saline with Tween-80.
Where [6] appears, read: dose: 400.0 mg/kg/injection, schedule: Q04DX002 (ip), vehicle: saline with Tween-80.
The mark [7] stands for this setting: dose: 600.0 mg/kg/injection, schedule: Q04DX002 (ip), vehicle: saline with Tween-80.

As for `Cc1cc2c(C(C)C)c(O)c(O)c(C=NCCO)c2c(O)c1-c1c(C)cc2c(C(C)C)c(O)c(O)c(C=NCCO)c2c1O`, the T/C (dose: 150.0 mg/kg/injection, schedule: Q01DX005 (ip), vehicle: saline with Tween-80) was 125 % of control; the T/C (dose: 200.0 mg/kg/injection, schedule: Q01DX005 (ip), vehicle: saline with Tween-80) is 131 % of control; the T/C (dose: 300.0 mg/kg/injection, schedule: Q01DX005 (ip), vehicle: saline with Tween-80) is 145 % of control.

With `NC(N)=N/N=C1\C(=O)N(c2cccc([N+](=O)[O-])c2)C(=O)C1C(=O)Nc1cccc([N+](=O)[O-])c1` (stereo unspecified), under setting [1], the survivor count was 3 of 6.

As for `O=S(=O)(O)O.[Cu+2].[NH-]CCCCC[NH-].[NH-]CCCCC[NH-]`, the survivor count is recorded as 2 of 6 (dose: 25.0 mg/kg/injection, schedule: Q04DX002 (ip), vehicle: Klucel (hydroxypropylcellulose) (HPC)); 0 of 6 (dose: 50.0 mg/kg/injection, schedule: Q04DX002 (ip), vehicle: Klucel (hydroxypropylcellulose) (HPC)); 0 of 6 (dose: 75.0 mg/kg/injection, schedule: Q04DX002 (ip), vehicle: Klucel (hydroxypropylcellulose) (HPC)); 0 of 6 (dose: 150.0 mg/kg/injection, schedule: Q04DX002 (ip), vehicle: Klucel (hydroxypropylcellulose) (HPC)); 0 of 6 (dose: 300.0 mg/kg/injection, schedule: Q04DX002 (ip), vehicle: Klucel (hydroxypropylcellulose) (HPC)).

On to `CCCCCCCCCCCC[N+]1([O-])CCCC1`, for which the survivor count under setting [2] is on record as 6 of 6, the survivor count under setting [3] is 0 of 6 and the survivor count under setting [4] is 0 of 6.

For the compound `CC1=CC(C)=Nc2ccccc2N1`, under setting [4], the survivor count is reported as 6 of 6.

For the compound `COC(=O)C1=C(C(=O)OC)C2C=CC1C1C(Cl)C(Cl)C21` (stereo unspecified), under setting [5], the survivor count is 6 of 6.

Turning to `CN1CC2CN(C)CC(C1)C2(O)c1ccccc1` (stereo unspecified), the survivor count under setting [2] was 0 of 6, 1 of 6, 2 of 6; the survivor count under setting [3] was 0 of 6; the survivor count (dose: 100.0 mg/kg/injection, schedule: Q04DX002 (ip), vehicle: saline) was 0 of 6; the survivor count under setting [4] is on record as 0 of 6; the survivor count (dose: 200.0 mg/kg/injection, schedule: Q04DX002 (ip), vehicle: saline) was 0 of 6; the survivor count (dose: 400.0 mg/kg/injection, schedule: Q04DX002 (ip), vehicle: saline) is given as 0 of 6.

Turning to `COc1cc2c(c(OC)c1OC)-c1ccc(SC)c(=O)cc1[C@@H](NC1OC(COC(C)=O)C(OC(C)=O)C(OC(C)=O)C1OC(C)=O)CC2` (stereo partly specified), the T/C is, setting by setting: (dose: 6.0 mg/kg/injection, schedule: Q01DX009 (ip), vehicle: other) 134 % of control; (dose: 12.0 mg/kg/injection, schedule: Q01DX009 (ip), vehicle: other) 142 % of control; (dose: 48.0 mg/kg/injection, schedule: Q01DX009 (ip), vehicle: other) 129 % of control; (dose: 96.0 mg/kg/injection, schedule: Q01DX009 (ip), vehicle: other) 128 % of control.

As for `O=C(SCc1oc2ccccc2c1O)c1ccccc1`, the survivor count is, setting by setting: under setting [5], 5 of 6; (dose: 200.0 mg/kg/injection, schedule: Q01DX009 (ip), vehicle: saline with Tween-80) 0 of 6.

On to `CCOC(=O)/C=C(\C)Nc1ccccc1N`, for which the survivor count under setting [1] is 0 of 6.

For the compound `COc1cc2c3cc1Oc1c(O)c(OC)cc4c1[C@H](Cc1ccc(cc1)Oc1cc(ccc1O)C[C@H]3N(C)CC2)N(C)CC4`, the survivor count (dose: 160.0 mg/kg/injection, schedule: Q01DX009 (ip), vehicle: other) is 4 of 6.

As for `CN(C)N=Nc1ccc(C(N)=O)cc1`, under setting [3], the T/C was 133 % of control.

For the compound `O=S(=O)(N=N/C=C1\C=CC=CN1O)c1cccs1`, the T/C (dose: 50.0 mg/kg/injection, schedule: Q04DX002 (ip), vehicle: saline with Tween-80) was 133 % of control [5 of 6 alive]; the T/C (dose: 100.0 mg/kg/injection, schedule: Q04DX002 (ip), vehicle: saline with Tween-80) was 106 [5 of 6 alive], 108, 109, 121 % of control; the T/C (dose: 200.0 mg/kg/injection, schedule: Q04DX002 (ip), vehicle: saline with Tween-80) is 110, 114 [5 of 6 alive], 137, 140 % of control; the T/C under setting [6] is 114 [4 of 6 alive], 120 [5 of 6 alive], 150 % of control; the T/C under setting [7] is 125 % of control [4 of 6 alive]. The survivor count was 2 of 6 under setting [6] and 2 of 6 under setting [7].

With `CCCCCC[C@H]([C@H](C)O)n1cnc2c(N)ncnc21`, the survivor count is on record as 2 of 6 (dose: 200.0 mg/kg/injection, schedule: Q01DX009 (ip), vehicle: Klucel (hydroxypropylcellulose) (HPC)) and 0 of 6 (dose: 400.0 mg/kg/injection, schedule: Q01DX009 (ip), vehicle: Klucel (hydroxypropylcellulose) (HPC)).

Turning to `O=C(O)[C@@H]1[C@H](C(=O)O)[C@H](C(=O)O)C[C@@H]1C(=O)O`, the survivor count (dose: 400.0 mg/kg/injection, schedule: Q01DX009 (ip), vehicle: saline) was 5 of 6.

For the compound `COc1cc(C(CC(C)=O)c2cc3c(cc2OC(C)=O)OCO3)cc(OC)c1OC` (stereo unspecified) (tested in a mixture with another compound), the T/C (dose: 120.0 mg/kg/injection, schedule: Q01DX005 (ip), vehicle: saline with Tween-80) was 126 % of control.

`C[C@@H]1[C@H](c2ccccc2)OCN1C`: the survivor count is, setting by setting: (dose: 25.0 mg/kg/injection, schedule: Q01DX005 (ip), vehicle: saline) 6 of 6; (dose: 50.0 mg/kg/injection, schedule: Q01DX005 (ip), vehicle: saline) 5 of 6; (dose: 100.0 mg/kg/injection, schedule: Q01DX005 (ip), vehicle: saline) 4 of 6; (dose: 240.0 mg/kg/injection, schedule: Q01DX005 (ip), vehicle: saline) 0 of 6. Further, the T/C by setting is: (dose: 60.0 mg/kg/injection, schedule: Q01DX005 (ip), vehicle: saline) 127 % of control; (dose: 120.0 mg/kg/injection, schedule: Q01DX005 (ip), vehicle: saline) 127 and 132 % of control.

Values taken from PubChem BioAssay AID330 (DTP/NCI, 2004).
